# PubChem BioAssay AID504804 – Drosophila RNAi Screening Center, 2011
# Purpose: 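dsRNAs that improve Kc cell survival under doxorubicin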 (primary screen)
# Cells: Drosophila Kc cells
# Knock-down reagent: long dsRNA against Drosophila genes, 0.5 µg dsRNA per well
# Timing: 96 h (48 h knock-down, then 48 h drug)
# Challenge: doxorubicin 5 µg/ml for 48 h, added 48 h after dsRNA
# Measurement: 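Viability measured as cellular ATP by luminescence after 48 h knock-down then 48 h doxorubicin at 5 µg/ml; unnormalised plate counts for each replicate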
# Reading the numbers: raw ATP luminescence: higher = more viable cells, protection from doxorubicin
# Rule for the call: 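z-score of 2 or more over plate mean in both duplicates, retained only when retests and separate dsRNAs confirm the protection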
# The deposit covers about 19,000 reagents; this is a random part of those with a known target gene and a result. Of all reagents, 47 (0.25%) were called active. 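Signals are raw, not normalised; exact z-scores behind calls not deposited; actives needed confirmation, so some wells reaching 2 SD are inactive.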 Names joined by + are all predicted targets of the reagent.
gene,amplicon,SD above plate mean,"raw ATP luminescence, replicate 1","raw ATP luminescence, replicate 2",outcome
CG34260 + cmpy,DRSC11701,,61477,60107,inactive
Alas,DRSC04044,,66003,73753,inactive
tkv + CR14033 + tRNA:Asp-GTC-2-1 + 1 more,DRSC00861,,2.14e5,3.18e5,inactive
Vrp1,DRSC04148,,89087,47153,inactive
CG43689,DRSC18383,,11320,15150,inactive
trn,DRSC11407,,72120,70497,inactive
Rpt4R,DRSC10791,,95503,73050,inactive
mbc,DRSC16995,,55410,61230,inactive
Mal-A3,DRSC07462,,39790,62677,inactive
Pbgs,DRSC09718,,80603,66317,inactive
Grl43a,DRSC06383,,29583,58267,inactive
Pex23,DRSC10323,,47723,36540,inactive
Pex23,DRSC10645,,58273,62073,inactive
ics,DRSC01878,,1.02e5,68790,inactive
jhamt,DRSC01985,,53117,74360,inactive
eIF4A,DRSC03526,,23387,29097,inactive
Shmt,DRSC18264,,40140,48050,inactive
Or67c,DRSC11242,,64220,66947,inactive
CG34288,DRSC13564,,2.92e5,2.64e5,inactive
S-Lap8,DRSC06870,,47360,59007,inactive
mnd,DRSC11370,at least 2 SD above plate mean,1.04e5,82583,active
Exo70,DRSC10774,,58237,76783,inactive
Polr1D + DCTN6-p27,DRSC02094,,69883,61307,inactive
CG13606,DRSC14609,,87680,82020,inactive
VhaPPA1-2,DRSC16176,,1.11e5,75910,inactive
CG42241 (retired record),DRSC04007,,1.01e5,1.00e5,inactive
CG32032,DRSC08961,,1.38e5,1.53e5,inactive
CG7579,DRSC10885,,67180,49063,inactive
CG7218,DRSC16216,,34200,33397,inactive
PHDP,DRSC04635,,52877,72877,inactive
CG15239,DRSC17972,,31050,44410,inactive
CG13998,DRSC02330,,24917,25447,inactive
cyr,DRSC18017,,42010,60740,inactive
cyr,DRSC18018,,37670,38230,inactive
cyr,DRSC18021,,41830,49190,inactive
Slmap,DRSC03799,,62870,51083,inactive
cert,DRSC09674,,42490,46587,inactive
disco-r,DRSC20173,,4.06e5,3.76e5,inactive
disco-r,DRSC20174,,3.74e5,3.91e5,inactive
Ca-alpha1D,DRSC03284,,1.06e5,79500,inactive
CG7564,DRSC10880,,59493,50823,inactive
CG31141,DRSC13646,,1.58e5,1.82e5,inactive

5 of these entries, set out differently:
{"gene": "CG42241 (retired record)", "amplicon": "DRSC04007", "raw ATP luminescence, replicate 1": 1.01e5, "raw ATP luminescence, replicate 2": 1.00e5, "outcome": "inactive"}
{"gene": "CG32032", "amplicon": "DRSC08961", "raw ATP luminescence, replicate 1": 1.38e5, "raw ATP luminescence, replicate 2": 1.53e5, "outcome": "inactive"}
{"gene": "CG7579", "amplicon": "DRSC10885", "raw ATP luminescence, replicate 1": 67180, "raw ATP luminescence, replicate 2": 49063, "outcome": "inactive"}
{"gene": "CG7218", "amplicon": "DRSC16216", "raw ATP luminescence, replicate 1": 34200, "raw ATP luminescence, replicate 2": 33397, "outcome": "inactive"}
{"gene": "PHDP", "amplicon": "DRSC04635", "raw ATP luminescence, replicate 1": 52877, "raw ATP luminescence, replicate 2": 72877, "outcome": "inactive"}

Further records:
gene,amplicon,SD above plate mean,"raw ATP luminescence, replicate 1","raw ATP luminescence, replicate 2",outcome
CG4042,DRSC11751,,65943,72907,inactive
Cyp303a1,DRSC03300,,52207,52647,inactive
CG2685,DRSC18463,,33100,32430,inactive
CG16782,DRSC18118,,63540,54250,inactive
REPTOR-BP,DRSC02683,,38473,51197,inactive
mkg-p + Tpt,DRSC10777,,46280,47673,inactive
Gnf1,DRSC12351,,54713,60840,inactive
CG6791,DRSC16118,,59100,31340,inactive
Vajk3,DRSC01883,,78457,53300,inactive
CG14839,DRSC14963,,76470,73480,inactive
CG13955,DRSC06443,,49123,76933,inactive
Z600,DRSC11317,,52667,29287,inactive
14-3-3zeta,DRSC05028,,49403,42180,inactive
CG33922,DRSC00050,,3.22e5,3.45e5,inactive
Sod2,DRSC07554,,68467,61873,inactive
ppk3,DRSC04275,,39603,52193,inactive
CG18814,DRSC10347,,41027,40353,inactive
Lon,DRSC11049,,25280,20963,inactive
Golgin104,DRSC10459,,26890,19273,inactive
Shaw,DRSC00433,,26860,31387,inactive
Shaw,DRSC00788,,25237,33013,inactive
ND-18,DRSC19441,,2.51e5,2.55e5,inactive
CG7120,DRSC10773,,70813,82970,inactive
Nepl12,DRSC16411,,65543,57827,inactive
Tbh,DRSC18723,,26160,41310,inactive
alpha-Est10,DRSC12613,,64920,54367,inactive
CG14778,DRSC17953,,45440,53600,inactive
CG11537,DRSC08200,,34650,50790,inactive
Hecw,DRSC18261,,3.81e5,3.66e5,inactive
Hecw,DRSC18276,,3.85e5,3.62e5,inactive
CG12436 (retired record),DRSC09869,,50330,38957,inactive
CG12436 (retired record),DRSC09885,,36987,29797,inactive
bero,DRSC03211,,74987,56560,inactive
Aos1,DRSC14113,,68147,44520,inactive
Yp3,DRSC20302,,2.26e5,2.73e5,inactive
Slu7,DRSC14729,,49670,44580,inactive
CG7600,DRSC09681,,33813,39963,inactive
Miga,DRSC17821,,30820,35830,inactive
mub,DRSC11896,,20247,21773,inactive
AsnS,DRSC11468,,66083,77297,inactive
CG4074,DRSC11752,,76133,85083,inactive
CheA46a,DRSC05184,,64257,69010,inactive
